From paper doi:10.1101/2020.03.20.000091
No constants are given. Whether binding was seen depends on the method and setting. For part of these data: Binding seen in cells or lysates may run through a third protein. Some binding calls cover weakened binding; strength is not graded here. Where a sequence is shown, tags or fusion partners need not be part of it.

T1: YFP-BBS4 (human) (UniProt Q96RK4)
T1 sequence: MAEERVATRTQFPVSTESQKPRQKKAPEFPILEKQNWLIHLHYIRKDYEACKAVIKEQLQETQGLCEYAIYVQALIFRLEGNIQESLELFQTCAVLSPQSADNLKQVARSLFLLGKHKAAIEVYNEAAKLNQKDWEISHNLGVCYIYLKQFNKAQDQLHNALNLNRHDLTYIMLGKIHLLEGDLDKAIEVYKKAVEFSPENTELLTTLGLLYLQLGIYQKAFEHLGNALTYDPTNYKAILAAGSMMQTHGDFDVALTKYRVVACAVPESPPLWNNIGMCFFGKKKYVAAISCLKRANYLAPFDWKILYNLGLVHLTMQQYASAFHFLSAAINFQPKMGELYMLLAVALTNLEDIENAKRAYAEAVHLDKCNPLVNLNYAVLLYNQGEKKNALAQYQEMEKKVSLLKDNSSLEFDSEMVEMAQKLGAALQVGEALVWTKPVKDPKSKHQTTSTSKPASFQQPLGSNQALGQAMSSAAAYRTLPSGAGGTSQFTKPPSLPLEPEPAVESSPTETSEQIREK

B1: BBS9 (protein, UniProt Q3SYG4 1-887)
chain: MSLFKARDWWSTILGDKEEFDQGCLCLANVDNSGNGQDKIIVGSFMGYLRIFSPHPAKTGDGAQAEDLLLEVDLRDPVLQVEVGKFVSGTEMLHLAVLHSRKLCVYSVSGTLGNVEHGNQCQMKLMYEHNLQRTACNMTYGSFGGVKGRDLICIQSMDGMLMVFEQESYAFGRFLPGFLLPGPLAYSSRTDSFLTVSSCQQVESYKYQVLAFATDADKRQETEQQKLGSGKRLVVDWTLNIGEQALDICIVSFNQSASSVFVLGERNFFCLKDNGQIRFMKKLDWSPSCFLPYCSVSEGTINTLIGNHNNMLHIYQDVTLKWATQLPHIPVAVRVGCLHDLKGVIVTLSDDGHLQCSYLGTDPSLFQAPNVQSRELNYDELDVEMKELQKIIKDVNKSQGVWPMTEREDDLNVSVVVSPNFDSVSQATDVEVGTDLVPSVTVKVTLQNRVILQKAKLSVYVQPPLELTCDQFTFEFMTPDLTRTVSFSVYLKRSYTPSELEGNAVVSYSRPTDRNPDGIPRVIQCKFRLPLKLICLPGQPSKTASHKITIDTNKSPVSLLSLFPGFASQSDDDQVNVMGFHFLGGARITVLASKTSQRYRIQSEQFEDLWLITNELILRLQEYFEKQGVKDFACSFSGSIPLQEYFELIDHHFELRINGEKLEELLSERAVQFRAIQRRLLARFKDKTPAPLQHLDTLLDGTYKQVIALADAVEENQGNLFQSFTRLKSATHLVILLIALWQKLSADQVAILEAAFLPLQEDTQELGWEETVDAAISHLLKTCLSKSSKEQALNLNSQLNIPKDTSQLKKHITLLCDRLSKGGRLCLSTDAAAPQTMVMPGGCTTIPESDLEERSVEQDSTELFTNHRHLTAETPRPEVSPLQGVSE
B2: BBS2 (protein, UniProt Q9BXC9 1-721)
chain: MLLPVFTLKLRHKISPRMVAIGRYDGTHPCLAAATQTGKVFIHNPHTRNQHVSASRVFQSPLESDVSLLSINQAVSCLTAGVLNPELGYDALLVGTQTNLLAYDVYNNSDLFYREVADGANAIVLGTLGDISSPLAIIGGNCALQGFNHEGSDLFWTVTGDNVNSLALCDFDGDGKKELLVGSEDFDIRVFKEDEIVAEMTETEIVTSLCPMYGSRFGYALSNGTVGVYDKTSRYWRIKSKNHAMSIHAFDLNSDGVNELITGWSNGKVDARSDRTGEVIFKDNFSSAIAGVVEGDYRMDGHIQLICCSVDGEIRGYLPGTAEMRGNLMDTSAEQDLIRELSQKKQNLLLELRNYEENAKAELASPLNEADGHRGIIPANTRLHTTLSVSLGNETQTAHTELRISTSNDTIIRAVLIFAEGIFTGESHVVHPSIHNLSSSICIPIVPPKDVPVDLHLKAFVGYRSSTQFHVFESTRQLPRFSMYALTSLDPASEPISYVNFTIAERAQRVVVWLGQNFLLPEDTHIQNAPFQVCFTSLRNGGHLHIKIKLSGEITINTDDIDLAGDIIQSMASFFAIEDLQVEADFPVYFEELRKVLVKVDEYHSVHQKLSADMADHSNLIRSLLVGAEDARLMRDMKTMKSRYMELYDLNRDLLNGYKIRCNNHTELLGNLKAVNQAIQRAGRLRVGKPKNQVITACRDAIRSNNINTLFKIMRVGTASS
B3: BBS5 (protein, UniProt Q8N3I7 1-341)
chain: MSVLDALWEDRDVRFDLSAQQMKTRPGEVLIDCLDSIEDTKGNNGDRGRLLVTNLRILWHSLALSRVNVSVGYNCILNITTRTANSKLRGQTEALYILTKCNSTRFEFIFTNLVPGSPRLFTSVMAVHRAYETSKMYRDFKLRSALIQNKQLRLLPQEHVYDKINGVWNLSSDQGNLGTFFITNVRIVWHANMNDSFNVSIPYLQIRSIKIRDSKFGLALVIESSQQSGGYVLGFKIDPVEKLQESVKEINSLHKVYSASPIFGVDYEMEEKPQPLEALTVEQIQDDVEIDSDGHTDAFVAYFADGNKQQDREPVFSEELGLAIEKLKDGFTLQGLWEVMS
B4: BBS7 (protein, UniProt Q8IWZ6 1-715)
chain: MDLILNRMDYLQVGVTSQKTMKLIPASRHRATQKVVIGDHDGVVMCFGMKKGEAAAVFKTLPGPKIARLELGGVINTPQEKIFIAAASEIRGFTKRGKQFLSFETNLTESIKAMHISGSDLFLSASYIYNHYCDCKDQHYYLSGDKINDVICLPVERLSRITPVLACQDRVLRVLQGSDVMYAVEVPGPPTVLALHNGNGGDSGEDLLFGTSDGKLALIQITTSKPVRKWEIQNEKKRGGILCIDSFDIVGDGVKDLLVGRDDGMVEVYSFDNANEPVLRFDQMLSESVTSIQGGCVGKDSYDEIVVSTYSGWVTGLTTEPIHKESGPGEELKINQEMQNKISSLRNELEHLQYKVLQERENYQQSSQSSKAKSAVPSFGINDKFTLNKDDASYSLILEVQTAIDNVLIQSDVPIDLLDVDKNSAVVSFSSCDSESNDNFLLATYRCQADTTRLELKIRSIEGQYGTLQAYVTPRIQPKTCQVRQYHIKPLSLHQRTHFIDHDRPMNTLTLTGQFSFAEVHSWVVFCLPEVPEKPPAGECVTFYFQNTFLDTQLESTYRKGEGVFKSDNISTISILKDVLSKEATKRKINLNISYEINEVSVKHTLKLIHPKLEYQLLLAKKVQLIDALKELQIHEGNTNFLIPEYHCILEEADHLQEEYKKQPAHLERLYGMITDLFIDKFKFKGTNVKTKVPLLLEILDSYDQNALISFFDAA
B5: BBS8 (protein, UniProt Q8TAM2 1-541)
chain: MSSEMEPLLLAWSYFRRRKFQLCADLCTQMLEKSPYDQEPDPELPVHQAAWILKARALTEMVYIDEIDVDQEGIAEMMLDENAIAQVPRPGTSLKLPGTNQTGGPSQAVRPITQAGRPITGFLRPSTQSGRPGTMEQAIRTPRTAYTARPITSSSGRFVRLGTASMLTSPDGPFINLSRLNLTKYSQKPKLAKALFEYIFHHENDVKTIHLEDVVLHLGIYPFLLRNKNHIEKNALDLAALSTEHSQYKDWWWKVQIGKCYYRLGMYREAEKQFKSALKQQEMVDTFLYLAKVYVSLDQPVTALNLFKQGLDKFPGEVTLLCGIARIYEEMNNMSSAAEYYKEVLKQDNTHVEAIACIGSNHFYSDQPEIALRFYRRLLQMGIYNGQLFNNLGLCCFYAQQYDMTLTSFERALSLAENEEEAADVWYNLGHVAVGIGDTNLAHQCFRLALVNNNNHAEAYNNLAVLEMRKGHVEQARALLQTASSLAPHMYEPHFNFATISDKIGDLQRSYVAAQKSEAAFPDHVDTQHLIKQLRQHFAML

The binders below were run against T1, YFP-BBS4 (human) (assay: fluorescence correlation spectroscopy).

binding, binds:
B1

The binders below were run against T1, YFP-BBS4 (human) (assay: co-IP).

binding, binds:
B2
B3
B4
B5
B1
